In paper PMC11110260:
No constants are given. Whether binding was seen depends on the method and setting. Binding seen in cells or lysates may run through a third protein. Some results given as binding are weak or reduced against the parent protein; the word gives no strength.

Sequences of proteins named here, by UniProt entry; tags and fusion partners are left off.
UniProt Q92466: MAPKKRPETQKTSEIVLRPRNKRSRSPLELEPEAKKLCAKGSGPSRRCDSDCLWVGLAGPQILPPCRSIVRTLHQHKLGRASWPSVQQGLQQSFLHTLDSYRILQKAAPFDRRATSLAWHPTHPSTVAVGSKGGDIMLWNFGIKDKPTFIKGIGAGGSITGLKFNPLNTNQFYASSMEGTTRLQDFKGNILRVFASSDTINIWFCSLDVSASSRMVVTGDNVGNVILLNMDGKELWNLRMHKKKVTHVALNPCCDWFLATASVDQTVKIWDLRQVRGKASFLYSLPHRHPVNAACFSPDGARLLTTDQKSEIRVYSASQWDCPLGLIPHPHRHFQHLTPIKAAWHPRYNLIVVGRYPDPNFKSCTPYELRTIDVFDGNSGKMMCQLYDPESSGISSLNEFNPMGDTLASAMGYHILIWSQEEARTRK
UniProt Q04206: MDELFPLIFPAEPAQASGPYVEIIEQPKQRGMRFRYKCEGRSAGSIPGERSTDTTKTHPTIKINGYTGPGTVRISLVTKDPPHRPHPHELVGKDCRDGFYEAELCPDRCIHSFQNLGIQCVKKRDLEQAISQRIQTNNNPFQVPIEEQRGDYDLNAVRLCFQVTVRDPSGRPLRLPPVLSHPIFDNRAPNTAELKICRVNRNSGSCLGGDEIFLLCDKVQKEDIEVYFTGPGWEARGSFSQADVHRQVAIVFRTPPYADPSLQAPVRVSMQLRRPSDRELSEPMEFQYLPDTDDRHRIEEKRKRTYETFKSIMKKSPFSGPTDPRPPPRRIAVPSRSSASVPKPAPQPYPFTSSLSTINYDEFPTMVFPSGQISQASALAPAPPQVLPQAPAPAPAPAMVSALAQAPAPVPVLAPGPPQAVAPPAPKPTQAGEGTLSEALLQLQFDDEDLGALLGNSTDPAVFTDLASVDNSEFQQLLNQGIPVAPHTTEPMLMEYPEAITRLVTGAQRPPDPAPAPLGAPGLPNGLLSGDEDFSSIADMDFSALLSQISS

Molecular target: DDB2^Wt (DNA-Damaged Binding protein 2, wild type), His-tagged (UniProt Q92466)
Experiment: pull-down; lysates of HEK293 stable clones 7 d after UV-C irradiation (hypotonic buffer: 10 mM Tris-HCl pH 7.4, 2.5 mM MgCl2, 0.5% NP-40, 10 mM imidazole; sonicated), incubated with Ni-NTA resin overnight at 4 °C; His-tagged DDB2 held on the resin; washed with 50 mM Tris-HCl pH 7.4; Western blot with anti-NF-kB p65 and anti-DDB2

NF-kB (detected with anti-NF-kB p65) (from UniProt Q04206 1-551)
binding: binds
